Reference: publication PMC7862700
This is a selection; strong and weak results do not stand in their true shares. At the low end of the ranking the order means little.

Amino acid sequences for entries named in this document (tags omitted). A change or cut given only in a name is not applied to a line headed by its entry.
UniProt Q01892: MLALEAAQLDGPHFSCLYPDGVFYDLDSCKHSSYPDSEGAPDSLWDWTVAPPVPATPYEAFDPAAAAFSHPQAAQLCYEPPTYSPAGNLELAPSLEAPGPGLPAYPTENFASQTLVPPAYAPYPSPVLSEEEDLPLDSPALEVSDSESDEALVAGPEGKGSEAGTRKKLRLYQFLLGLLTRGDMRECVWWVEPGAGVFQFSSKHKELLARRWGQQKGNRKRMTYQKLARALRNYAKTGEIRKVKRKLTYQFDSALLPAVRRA
UniProt P41161: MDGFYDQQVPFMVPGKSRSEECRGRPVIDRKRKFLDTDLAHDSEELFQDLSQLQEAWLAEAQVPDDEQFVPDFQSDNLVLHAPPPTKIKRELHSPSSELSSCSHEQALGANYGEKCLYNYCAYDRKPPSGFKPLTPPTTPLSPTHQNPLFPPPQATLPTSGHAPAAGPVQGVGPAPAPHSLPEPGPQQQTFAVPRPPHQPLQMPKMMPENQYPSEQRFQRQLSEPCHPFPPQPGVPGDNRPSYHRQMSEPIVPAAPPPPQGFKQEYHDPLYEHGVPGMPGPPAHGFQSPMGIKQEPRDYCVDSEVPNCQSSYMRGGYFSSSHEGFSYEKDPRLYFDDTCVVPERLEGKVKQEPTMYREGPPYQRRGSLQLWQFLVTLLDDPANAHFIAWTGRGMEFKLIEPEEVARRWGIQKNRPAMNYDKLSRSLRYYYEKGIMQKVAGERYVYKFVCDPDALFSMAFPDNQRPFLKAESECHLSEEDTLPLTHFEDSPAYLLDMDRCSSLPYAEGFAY

How the values were obtained:
Experiment in all cases: DAPPL (digital affinity profiling via proximity ligation, sequencing)
Conditions in all cases: 10 mM Tris-HCl pH 7.5, 50 mM NaCl, 1 mM DTT, 4% glycerol, room temperature, 30 min; GST-TFs on glutathione beads, 16-mer random dsDNA library, 0.1% …; high values mean tight binding; double strand, one strand shown; scale: fold enrichment (6-mer frequency, TF over GST control)
EHF = target: T1, EHF (UniProt Q9NZC4)
T1 sequence: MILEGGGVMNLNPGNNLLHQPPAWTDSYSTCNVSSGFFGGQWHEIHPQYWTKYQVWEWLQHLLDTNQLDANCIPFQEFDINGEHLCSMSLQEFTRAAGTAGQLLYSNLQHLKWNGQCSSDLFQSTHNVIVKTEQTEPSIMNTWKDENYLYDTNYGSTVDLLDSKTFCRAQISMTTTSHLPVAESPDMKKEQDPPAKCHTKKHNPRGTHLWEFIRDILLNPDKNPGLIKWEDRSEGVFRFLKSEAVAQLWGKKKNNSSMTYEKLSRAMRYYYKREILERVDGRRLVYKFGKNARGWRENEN

SPIB = SPIB (UniProt Q01892)
ETV5 = ETV5 (UniProt P41161)
ETV2 = target: T2, ETV2 (UniProt O00321)
T2 sequence: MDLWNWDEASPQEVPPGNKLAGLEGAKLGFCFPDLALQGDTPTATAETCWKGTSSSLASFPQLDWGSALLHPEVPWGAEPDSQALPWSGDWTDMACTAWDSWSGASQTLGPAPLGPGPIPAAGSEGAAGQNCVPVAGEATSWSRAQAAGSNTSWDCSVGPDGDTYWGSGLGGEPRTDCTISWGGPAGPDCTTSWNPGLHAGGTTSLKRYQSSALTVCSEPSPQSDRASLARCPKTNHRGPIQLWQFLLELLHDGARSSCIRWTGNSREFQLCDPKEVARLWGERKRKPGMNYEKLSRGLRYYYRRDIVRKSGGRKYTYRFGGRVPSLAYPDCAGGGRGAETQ

ETV3L = target: T3, ETV3L (UniProt Q6ZN32)
T3 sequence: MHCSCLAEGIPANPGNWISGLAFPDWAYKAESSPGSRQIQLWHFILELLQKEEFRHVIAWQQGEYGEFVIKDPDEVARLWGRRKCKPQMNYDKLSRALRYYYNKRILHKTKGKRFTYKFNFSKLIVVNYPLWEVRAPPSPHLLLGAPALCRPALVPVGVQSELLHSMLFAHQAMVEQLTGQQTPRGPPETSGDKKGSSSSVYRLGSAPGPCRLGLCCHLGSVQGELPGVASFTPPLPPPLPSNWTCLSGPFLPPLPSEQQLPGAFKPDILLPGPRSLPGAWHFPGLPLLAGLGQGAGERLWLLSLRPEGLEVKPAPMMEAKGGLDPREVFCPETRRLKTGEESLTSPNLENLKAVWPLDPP

Sequence | binding signal (EHF) | binding signal (SPIB) | binding signal (ETV5) | binding signal (ETV2) | binding signal (ETV3L)
CACCCA | 0.963 | 1.03 | 0.968 | 0.976 | 0.976
GCTCAC | 1.51 | 1.44 | 1.47 | 1.63 | 1.57
AGAACA | – | 0.985 | 0.963 | 1.03 | 1.01
TCCTGC | 1.53 | 1.81 | 1.83 | 1.49 | 1.71
CGCAAC | – | 0.981 | 0.977 | 0.932 | 0.953
TCAGCC | 0.97 | – | 0.961 | 1.03 | –
ATTGAG | – | 0.939 | 0.994 | 0.935 | 0.996
GCCCGA | 0.994 | 0.891 | 0.909 | 0.861 | 1.01
ATGGGG | 1.11 | 1.14 | 0.986 | 1.16 | 1.16
GTCACG | – | 0.992 | 0.949 | 0.897 | 0.996
CCATTA | 1.06 | – | 1.06 | 1.15 | –
GATACA | 0.982 | 0.933 | 0.973 | 0.978 | 1.05
ATTTTG | 1.3 | – | 1.28 | 1.33 | –
AGAAAC | 0.977 | 0.948 | 0.977 | 0.89 | 0.971
ACATAG | – | 1.01 | 1.08 | 1.11 | 0.964
ACCGTT | 0.861 | 0.944 | 0.981 | 0.901 | 0.934
ACATCG | – | 1.1 | 1.04 | 0.987 | –
ATTTAG | 1.14 | 1.16 | 1.06 | 1.3 | –
TCGAGC | 0.924 | – | 0.992 | 1.04 | –
CTTCCG | 7.93 | – | 8.45 | 7.7 | –
GGATGT | 1.74 | – | 1.77 | 1.44 | –
CCACAG | 0.998 | 0.921 | 0.928 | 0.923 | 0.922
ACTGAC | – | 1.21 | 1.19 | 1.3 | 1.19
TTGACG | 1.2 | – | 0.985 | 1.23 | –
AATGGA | 0.991 | – | 1.05 | 0.979 | –
CCCCGC | – | 1.19 | 1.18 | 0.995 | –
AAATAA | – | – | 1.37 | – | 1.26

In a second layout: results already given
Sequence	binding signal (EHF)	binding signal (SPIB)	binding signal (ETV5)	binding signal (ETV2)	binding signal (ETV3L)
ATTGAG	–	0.939	0.994	0.935	0.996
CCATTA	1.06	–	1.06	1.15	–
